According to PMC4359269:
These are yes or no findings as the source states them, for the method shown. In cells and extracts the contact can be indirect. Some entries that bind do so weakly or less than the wild type. Tags and fused reporters may be left off the sequences shown.

Sequences of proteins named here, by UniProt entry; tags and fusion partners are left off.
UniProt Q15672: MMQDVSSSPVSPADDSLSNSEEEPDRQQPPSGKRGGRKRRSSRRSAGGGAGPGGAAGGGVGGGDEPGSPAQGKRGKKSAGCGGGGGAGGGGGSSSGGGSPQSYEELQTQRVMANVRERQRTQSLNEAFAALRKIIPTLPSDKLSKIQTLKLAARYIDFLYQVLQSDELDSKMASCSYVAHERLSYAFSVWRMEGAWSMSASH
UniProt O95863: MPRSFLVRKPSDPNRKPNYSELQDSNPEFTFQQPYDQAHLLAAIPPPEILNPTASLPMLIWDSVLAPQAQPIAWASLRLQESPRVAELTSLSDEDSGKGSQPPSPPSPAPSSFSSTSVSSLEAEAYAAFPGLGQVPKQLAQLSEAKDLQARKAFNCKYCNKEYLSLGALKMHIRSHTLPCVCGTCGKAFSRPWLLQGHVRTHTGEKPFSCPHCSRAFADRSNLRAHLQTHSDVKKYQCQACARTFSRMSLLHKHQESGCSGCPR

T1: GST-Fbxo45 (human) (UniProt P0C2W1)
T1 sequence: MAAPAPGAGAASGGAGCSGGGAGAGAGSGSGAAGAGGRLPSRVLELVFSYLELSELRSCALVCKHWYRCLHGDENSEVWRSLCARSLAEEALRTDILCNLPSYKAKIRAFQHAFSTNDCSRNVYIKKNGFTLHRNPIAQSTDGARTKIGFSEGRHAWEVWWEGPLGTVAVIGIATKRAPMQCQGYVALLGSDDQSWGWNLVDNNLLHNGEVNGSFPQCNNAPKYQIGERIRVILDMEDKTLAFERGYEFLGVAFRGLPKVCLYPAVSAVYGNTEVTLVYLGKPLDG

T2: Flag-tagged Snai2 (UniProt O43623)
T2 sequence: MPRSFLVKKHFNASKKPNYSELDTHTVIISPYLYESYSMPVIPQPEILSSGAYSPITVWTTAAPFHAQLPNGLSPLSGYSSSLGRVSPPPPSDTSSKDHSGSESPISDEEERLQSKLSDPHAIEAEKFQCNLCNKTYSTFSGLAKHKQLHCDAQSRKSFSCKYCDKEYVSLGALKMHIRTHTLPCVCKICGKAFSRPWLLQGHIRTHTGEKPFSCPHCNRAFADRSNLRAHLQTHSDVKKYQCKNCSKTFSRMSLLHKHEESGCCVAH

T3: 3xFlag-Zeb2 (human) (UniProt O60315)
T3 sequence: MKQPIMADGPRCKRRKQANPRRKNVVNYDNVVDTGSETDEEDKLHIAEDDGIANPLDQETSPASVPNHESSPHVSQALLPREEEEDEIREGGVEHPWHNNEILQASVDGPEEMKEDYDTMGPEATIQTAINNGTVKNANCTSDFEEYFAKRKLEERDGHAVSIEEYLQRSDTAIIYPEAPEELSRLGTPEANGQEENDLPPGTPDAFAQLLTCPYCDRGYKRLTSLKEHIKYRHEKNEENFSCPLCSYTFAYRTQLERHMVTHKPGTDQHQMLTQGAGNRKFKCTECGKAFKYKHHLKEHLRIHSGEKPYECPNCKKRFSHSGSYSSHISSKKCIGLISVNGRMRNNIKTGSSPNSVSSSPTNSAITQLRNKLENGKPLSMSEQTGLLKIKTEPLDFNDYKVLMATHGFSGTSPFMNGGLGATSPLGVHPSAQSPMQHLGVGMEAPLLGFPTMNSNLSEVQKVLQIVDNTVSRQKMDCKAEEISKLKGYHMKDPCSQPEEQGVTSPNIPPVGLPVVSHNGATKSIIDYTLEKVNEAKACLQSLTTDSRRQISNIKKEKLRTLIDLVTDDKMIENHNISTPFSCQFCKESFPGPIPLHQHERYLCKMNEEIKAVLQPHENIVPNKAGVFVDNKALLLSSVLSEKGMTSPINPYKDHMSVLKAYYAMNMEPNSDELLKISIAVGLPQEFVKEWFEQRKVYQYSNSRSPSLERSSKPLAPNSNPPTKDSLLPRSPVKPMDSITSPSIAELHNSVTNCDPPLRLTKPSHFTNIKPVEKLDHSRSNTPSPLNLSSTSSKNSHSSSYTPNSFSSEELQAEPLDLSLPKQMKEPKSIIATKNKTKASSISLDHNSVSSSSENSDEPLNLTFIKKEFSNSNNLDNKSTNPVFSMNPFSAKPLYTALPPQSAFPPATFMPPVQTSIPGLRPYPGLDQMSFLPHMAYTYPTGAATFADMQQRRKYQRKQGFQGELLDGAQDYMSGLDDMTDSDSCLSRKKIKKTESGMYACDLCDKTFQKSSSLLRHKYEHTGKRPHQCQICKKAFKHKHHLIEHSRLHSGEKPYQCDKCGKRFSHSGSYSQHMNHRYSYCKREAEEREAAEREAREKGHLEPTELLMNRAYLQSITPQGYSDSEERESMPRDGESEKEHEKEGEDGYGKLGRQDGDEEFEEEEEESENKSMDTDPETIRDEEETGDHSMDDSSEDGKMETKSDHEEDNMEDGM

T4: 3xFlag-Zeb1 (human) (UniProt P37275)
T4 sequence: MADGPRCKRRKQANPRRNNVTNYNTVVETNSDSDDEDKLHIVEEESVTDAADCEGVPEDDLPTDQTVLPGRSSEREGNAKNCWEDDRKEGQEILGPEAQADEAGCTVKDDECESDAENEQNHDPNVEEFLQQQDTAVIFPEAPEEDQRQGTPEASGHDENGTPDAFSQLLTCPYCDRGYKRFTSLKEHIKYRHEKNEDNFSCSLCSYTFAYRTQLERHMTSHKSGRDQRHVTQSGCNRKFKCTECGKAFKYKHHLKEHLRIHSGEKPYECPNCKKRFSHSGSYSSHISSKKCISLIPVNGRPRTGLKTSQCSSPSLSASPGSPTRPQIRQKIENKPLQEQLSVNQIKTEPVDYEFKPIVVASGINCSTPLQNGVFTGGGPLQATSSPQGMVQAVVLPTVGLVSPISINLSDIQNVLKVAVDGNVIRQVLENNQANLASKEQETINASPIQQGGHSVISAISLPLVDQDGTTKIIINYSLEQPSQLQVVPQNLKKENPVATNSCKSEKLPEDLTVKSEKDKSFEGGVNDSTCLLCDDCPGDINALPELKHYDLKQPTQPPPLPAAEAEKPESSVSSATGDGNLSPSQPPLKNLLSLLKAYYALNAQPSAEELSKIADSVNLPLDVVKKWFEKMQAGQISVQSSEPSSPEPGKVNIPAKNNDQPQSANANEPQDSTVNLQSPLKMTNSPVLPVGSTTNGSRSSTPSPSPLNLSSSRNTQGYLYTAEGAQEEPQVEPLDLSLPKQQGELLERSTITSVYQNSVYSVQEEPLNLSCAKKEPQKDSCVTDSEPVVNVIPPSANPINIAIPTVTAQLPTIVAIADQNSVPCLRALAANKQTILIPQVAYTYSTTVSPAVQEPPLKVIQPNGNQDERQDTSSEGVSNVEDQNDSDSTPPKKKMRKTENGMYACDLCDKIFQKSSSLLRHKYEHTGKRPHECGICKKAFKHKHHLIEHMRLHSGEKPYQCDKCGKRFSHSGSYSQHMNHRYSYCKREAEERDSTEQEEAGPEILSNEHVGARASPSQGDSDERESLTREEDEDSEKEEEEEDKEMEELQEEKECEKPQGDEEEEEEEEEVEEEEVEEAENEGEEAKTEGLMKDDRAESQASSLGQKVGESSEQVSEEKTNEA

B1: HA-Fbxo45 (protein, UniProt P0C2W1 1-286)
chain: T1 sequence
B2: Flag-tagged Snai2 (protein, UniProt O43623 1-268)
chain: T2 sequence
B3: endogenous Zeb2 (protein, UniProt O60315 1-1214)
chain: T3 sequence
B4: endogenous Snai2 (protein, UniProt O43623 1-268)
chain: T2 sequence

Legend:
GST-Fbxo45 (human) [1] = molecular target: T1, GST-Fbxo45 (human); assay: pull-down; purified GST-tagged Fbxo45 forms with exogenously expressed Snai1, Snai2 or Twist1 from HEK293T cells (Supplementary Fig S4); only the target purified
GST-Fbxo45 (human) [2] = molecular target: T1, GST-Fbxo45 (human); assay: pull-down; purified GST-tagged Fbxo45 forms and Glutathione sepharose 4B beads incubated with HeLa cell extract in RIPA buffer (50 mM Tris-HCl pH 7.4, 150 mM NaCl, 0.5% NP-40) at 4°C overnight; washed with RIPA buffer; immunoblot; only the target purified
Flag-tagged Snai2 = molecular target: T2, Flag-tagged Snai2; assay: co-IP; lysates of co-transfected HEK293T cells, modified RIPA buffer (50 mM Tris-HCl pH 7.4, 150 mM NaCl, 0.5% NP-40); IP with anti-Flag M2 (Figure 3C also anti-HA), immunoblot
3xFlag-Zeb2 (human) = molecular target: T3, 3xFlag-Zeb2 (human); assay: as above
Flag-tagged Twist1 = Flag-tagged Twist1 (UniProt Q15672); assay: as above
Flag-tagged Snai1 = Flag-tagged Snai1 (UniProt O95863); assay: as above
3xFlag-Zeb1 (human) = molecular target: T4, 3xFlag-Zeb1 (human); assay: as above

| Molecule | binding (GST-Fbxo45 (human) [1]) | binding (GST-Fbxo45 (human) [2]) | also measured |
| --- | --- | --- | --- |
| Flag-tagged Twist1 (from UniProt Q15672 1-202) | binds | – | – |
| Flag-tagged Snai1 (from UniProt O95863 1-264) | binds | – | – |
| endogenous Snai1 (from UniProt O95863 1-264) | – | binds | – |
| B1 | – | – | binding (Flag-tagged Snai2): binds; binding (3xFlag-Zeb2 (human)): binds; binding (Flag-tagged Twist1): binds; binding (Flag-tagged Snai1): binds; binding (3xFlag-Zeb1 (human)): binds |
| B2 | binds | – | – |
| B3 | – | binds | – |
| B4 | – | binds | – |
